This note sets out measurements from paper PMC9657364.

Protein sequences, listed by entry. Tags and fused reporters are not part of them.
UniProt Q14258: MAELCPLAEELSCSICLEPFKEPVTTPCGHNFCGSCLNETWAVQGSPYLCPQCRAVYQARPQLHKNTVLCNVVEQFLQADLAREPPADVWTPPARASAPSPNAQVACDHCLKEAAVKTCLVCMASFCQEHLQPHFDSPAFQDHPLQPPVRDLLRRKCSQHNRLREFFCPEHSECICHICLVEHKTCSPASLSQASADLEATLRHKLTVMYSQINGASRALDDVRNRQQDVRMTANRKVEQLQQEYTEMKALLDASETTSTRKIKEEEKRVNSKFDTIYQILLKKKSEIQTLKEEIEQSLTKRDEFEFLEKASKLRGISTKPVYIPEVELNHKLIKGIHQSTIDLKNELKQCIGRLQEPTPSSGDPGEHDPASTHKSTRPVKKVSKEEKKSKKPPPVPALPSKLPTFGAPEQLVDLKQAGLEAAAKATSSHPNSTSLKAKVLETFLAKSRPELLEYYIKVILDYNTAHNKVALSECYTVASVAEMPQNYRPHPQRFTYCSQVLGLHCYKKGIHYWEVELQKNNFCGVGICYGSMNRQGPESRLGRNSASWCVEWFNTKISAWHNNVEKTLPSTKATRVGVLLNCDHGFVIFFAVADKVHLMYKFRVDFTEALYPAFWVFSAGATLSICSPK

No constants are given. Whether binding was seen depends on the method and setting. Binding seen in cells or lysates may run through a third protein. Here binding means that the protein was enriched with, or labelled near, the bait; the list need not be complete.

This test concerns the target T1, Receptor interacting protein serine/threonine kinase 4 (RIPK4) (human (endogenous in BGC-823 and AGS)) (UniProt P57078).
T1 sequence: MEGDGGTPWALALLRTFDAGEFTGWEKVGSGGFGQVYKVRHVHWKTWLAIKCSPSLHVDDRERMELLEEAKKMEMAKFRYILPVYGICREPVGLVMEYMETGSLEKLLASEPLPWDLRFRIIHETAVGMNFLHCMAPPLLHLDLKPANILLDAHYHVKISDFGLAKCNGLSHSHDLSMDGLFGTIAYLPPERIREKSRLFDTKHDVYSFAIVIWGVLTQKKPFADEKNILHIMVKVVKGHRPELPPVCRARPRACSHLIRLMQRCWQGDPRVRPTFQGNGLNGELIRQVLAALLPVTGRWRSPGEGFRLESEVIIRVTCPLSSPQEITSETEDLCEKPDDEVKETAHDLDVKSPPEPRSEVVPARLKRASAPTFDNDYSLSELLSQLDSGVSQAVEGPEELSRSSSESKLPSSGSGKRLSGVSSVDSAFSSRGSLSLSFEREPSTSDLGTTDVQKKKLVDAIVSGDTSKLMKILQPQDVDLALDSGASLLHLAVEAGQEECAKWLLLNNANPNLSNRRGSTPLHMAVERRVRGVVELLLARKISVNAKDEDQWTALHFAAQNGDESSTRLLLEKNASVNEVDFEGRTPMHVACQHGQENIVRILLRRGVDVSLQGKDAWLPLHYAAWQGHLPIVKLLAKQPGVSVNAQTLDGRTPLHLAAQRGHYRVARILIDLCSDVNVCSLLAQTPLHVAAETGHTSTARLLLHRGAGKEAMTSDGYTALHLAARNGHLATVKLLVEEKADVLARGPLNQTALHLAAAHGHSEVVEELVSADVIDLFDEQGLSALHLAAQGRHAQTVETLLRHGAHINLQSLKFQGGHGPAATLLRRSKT
The experiment in a line: affinity purification with mass spectrometry; RIPK4 antibody used to precipitate endogenous RIPK4 from control (NC) and si-LINC01537 AGS and BGC-823 cells; silver staining, mass spectrometry, Western blot of the candidate E3 enzyme. For orientation: In western blotting, separated proteins are transferred to a membrane and probed.

As to TRIM25 (from UniProt Q14258 1-630), the binding result was “binds”.
